Test results published in PubChem BioAssay (EPA / NIEHS).
“And” between values parts separate entries of the source, which are not always exact repeats. Identical values can stand only once. Inconclusive results, whose numbers are uncertain, are shown with a selection of clear calls. Potencies of inconclusive entries are doubtful fits and often do not repeat. The source made the active and inactive calls. Rule for the calls: active = hit-call score of the fitted dose curve at least 0.9, where 1 is the maximum; inconclusive = response in the unintended direction; inactive = score below 0.9.

assay: TOX21_p53_BLA_p5_viability: Viability Assessment in the Tox21 HCT-116 p53 Agonism Beta-lactamase Assay, Phase 5 (AID 2283600)
Procedure, shortened: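 Cells were plated at 4000/well, rested 5 h at 37C, then given compounds in DMSO (217-fold dilution) for 16 h at 37C, 5% CO2. Following the CCF4-AM beta-lactamase read, CellTiter-Glo was added and luminescence was read after 30 min at room temperature.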

| SMILES | AC50 | outcome |
| --- | --- | --- |
| CO[Si](OC)(OC)c1ccccc1 | inconclusive: 46.1 µM |  |
| CCCCCCCCCCCCCCCC[N+](C)(C)CC | active: 74.8 µM and active: 18.2 µM |  |
| CC(C)=CC(=O)O | inconclusive: 46.1 µM |  |
| O=C1C=CC(=O)N1c1ccc(Cc2ccc(N3C(=O)C=CC3=O)cc2)cc1 | active: 86.3 µM |  |
| OCC(CO)(CO)COCC(CO)(CO)CO |  | inactive |
| C=COCC1CCC(COC=C)CC1 (centres undefined) |  | inactive |
| O=S(=O)(O)c1ccc2cc(O)c(S(=O)(=O)O)cc2c1 |  | inactive |
| CC(=O)OCC(C)OC(C)=O (centres undefined) | inconclusive: 88.6 µM |  |
| CCCCCCCCCCCCCCCCC | inconclusive: 46.1 µM |  |
| CC1=CC(C)C(C=O)CC1 (centres undefined) | inconclusive: 46.1 µM |  |
| CCCSSCCC | inconclusive: 46.1 µM |  |
| C=C[C@](C)(O)CC[C@@H]1[C@@]2(C)CCCC(C)(C)[C@@H]2CC[C@@]1(C)O | active: 67.5 µM |  |
| CC(C)(c1ccc(O)cc1)c1ccc(O)cc1 |  | inactive |
| O=C(c1ccc(OCCN2CCCCC2)cc1)c1c(-c2ccc(O)cc2)sc2cc(O)ccc12 | active: 77.6 µM and active: 87.9 µM and active: 41.9 µM |  |
| CC(=O)c1cccnc1 | inconclusive: 0.0281 µM |  |
| CCCCCC=O | inconclusive: 47.8 µM |  |
| O=P(O)(O)Oc1ccccc1 |  | inactive |
| C=C(C)C(=O)O[C@H]1C[C@@H]2CC[C@@]1(C)C2(C)C | inconclusive: 46.1 µM and inconclusive: 45.8 µM |  |
| O=C1CC2CC1C1CCCC21 (centres undefined) | inconclusive: 0.478 µM |  |
